From patent publication US12571791B2, “Methods for evaluating cardiac safety of drug using cardiomyocytes derived from human stem cells” (NEXEL CO., LTD., priority 2021, dated 2026)

System: human stem cell-derived cardiomyocytes

COC(=O)C1=C(C)NC(C)=C(C(=O)OC)C1c1ccccc1[N+](=O)[O-] [Nifedipine]
change in FPDcF (field potential duration corrected by Fridericia's formula): increasing or decreasing depending on the administered concentrations
